For this assay, the system named is RAW 264.7. As to the kind of experiment: HMGB1-induced TNF-alpha production relative to HMGB1-stimulated control; higher = more TNF-alpha secretion (less inhibition). As to conditions: stimulus: HMGB1 5 ug/ml, 18 h.
The mark [1] stands for this setting: compound concentration: 1 ug/ml.

41 compounds from the supplement of paper PMC3682954 can be followed below.

Where a name gives a salt, the structure may show the parent alone. ± gives the standard deviation of the averaged measurements. This is one part of the list. Repeats are few or missing, and single values can be far off.

Turning to `O=C1[C@H](CC[C@H](O)c2ccc(F)cc2)[C@@H](c2ccc(O)cc2)N1c1ccc(F)cc1`, the “HMGB1-induced TNF-alpha production” value (compound concentration: 3 uM) came out at 105 ± 4.3%.

As to `COc1ccc(C(=O)c2ccccc2O)c(O)c1`, the “HMGB1-induced TNF-alpha production” value (compound concentration: 3 uM) came out at 68.1%.

Take `COc1ccc(C(=O)c2ccccc2O)c(O)c1` [Dioxybenzone]: the “HMGB1-induced TNF-alpha production” value (compound concentration: 3 uM) was 109%.

Consider `CC(C)(C)NC[C@H](O)COc1ccccc1C1CCCC1` [Penbutolol sulfate], for which the “HMGB1-induced TNF-alpha production” value (compound concentration: 3 uM) worked out at 111%.

With `COCCc1ccc(OCC(O)CNC(C)C)cc1` (stereo unspecified) [Metoprolol], where the note is “compound concentration: 3 uM”, the “HMGB1-induced TNF-alpha production” value amounted to 75.3%.

`COCCc1ccc(OCC(O)CNC(C)C)cc1` (stereo unspecified): the “HMGB1-induced TNF-alpha production” value (compound concentration: 3 uM) turned out to be 84.8%.

With `COc1ccc(CN2CCN(C(c3ccc(F)cc3)c3ccc(F)cc3)CC2)c(OC)c1OC`, the “HMGB1-induced TNF-alpha production” value (compound concentration: 3 uM) is 94.1%.

Regarding `COc1ccc(CN2CCN(C(c3ccc(F)cc3)c3ccc(F)cc3)CC2)c(OC)c1OC` [Lomerizine], the “HMGB1-induced TNF-alpha production” value (compound concentration: 3 uM) is 59.2%.

As for `COc1cc2c(cc1OC)C(=O)N(C)CC2` [N-methylcorydaldine], the “HMGB1-induced TNF-alpha production” value under setting [1] turned out to be 75.5%.

Take `CC(C)Cc1ccc(C(C)C(=O)O)cc1` (stereo unspecified) [Ibuprofen]: the “HMGB1-induced TNF-alpha production” value (compound concentration: 3 uM) turned out to be 129%.

With `CC(C)Cc1ccc(C(C)C(=O)O)cc1` (stereo unspecified), the “HMGB1-induced TNF-alpha production” value (compound concentration: 3 uM) was 97.8%.

Consider `COC1=CC(=O)C=C(OC)C1=O`, for which the “HMGB1-induced TNF-alpha production” value (compound concentration: 3 uM) was 37.8%.

In the case of `COC(=O)C(N)Cc1ccc(Cl)cc1` (racemic) [DL-p-Chlorophenylalanine methyl ester hydrochloride], under “compound concentration: 3 uM”, the “HMGB1-induced TNF-alpha production” value was 95%.

On to `Cc1cnc(C(=O)O)c[n+]1[O-]` [Acipimox], for which, under “compound concentration: 3 uM”, the “HMGB1-induced TNF-alpha production” value is 98.9 ± 20%.

Consider `CC(=O)Nc1cccc(O)c1`, for which the “HMGB1-induced TNF-alpha production” value (compound concentration: 3 uM) was 70.2%.

With `O=c1c(O)c(-c2ccc(O)c(O)c2)oc2cc(O)cc(O)c12` [Quercetin dihydrate], where the note is “compound concentration: 3 uM”, the “HMGB1-induced TNF-alpha production” value is 90.7%.

As for `O=C(O)C1(C(=O)O)CCC1.[NH2-].[NH2-].[Pt+2]` [Carboplatin], the “HMGB1-induced TNF-alpha production” value (compound concentration: 3 uM) is 95.1 ± 1.8%.

On to `O=C(O)C1(C(=O)O)CCC1.[NH2-].[NH2-].[Pt+2]`, for which the “HMGB1-induced TNF-alpha production” value (compound concentration: 3 uM) was determined as 90.4 ± 13%.

Turning to `O=C(O)[C@H]1/C(=C/CO)O[C@@H]2CC(=O)N21` [Potassium clavulanate], the “HMGB1-induced TNF-alpha production” value (compound concentration: 3 uM) amounted to 109%.

As for `O=C(OCCOCCO)c1ccccc1Nc1cccc(C(F)(F)F)c1` [Etofenamate], for the setting “compound concentration: 3 uM”, the “HMGB1-induced TNF-alpha production” value came to 102%.

Consider `CC1=C(C/C=C(\C)CCC[C@H](C)CCC[C@H](C)CCCC(C)C)C(=O)c2ccccc2C1=O`, for which the “HMGB1-induced TNF-alpha production” value (compound concentration: 3 uM) was 80.8%.

Turning to `CC1=C(C/C=C(\C)CCC[C@H](C)CCC[C@H](C)CCCC(C)C)C(=O)c2ccccc2C1=O` [Phylloquinone; phytonadione; Vitamin K_1], the “HMGB1-induced TNF-alpha production” value under setting [1] stood at 72.4%.

Consider `N[C@H](C(=O)O)[C@H]1C[C@@H]1C(=O)O` [(2S,1'S,2'S)-2-(carboxycyclopropyl)glycine], for which, for the setting “compound concentration: 3 uM”, the “HMGB1-induced TNF-alpha production” value was determined as 81.5%.

As for `C=C(c1ccc(C(=O)O)cc1)c1cc2c(cc1C)C(C)(C)CCC2(C)C` [Bexarotene], for the setting “compound concentration: 3 uM”, the “HMGB1-induced TNF-alpha production” value is 100%.

On to `C#C[C@]1(O)CC[C@H]2[C@@H]3CCC4=C(CCC(=O)C4)[C@H]3CC[C@@]21C` [Norethynodrel], for which, under “compound concentration: 3 uM”, the “HMGB1-induced TNF-alpha production” value turned out to be 68.7%.

In the case of `C#C[C@]1(O)CC[C@H]2[C@@H]3CCC4=C(CCC(=O)C4)[C@H]3CC[C@@]21C`, for the setting “compound concentration: 3 uM”, the “HMGB1-induced TNF-alpha production” value is 87.7%.

On to `CC(C)(C)NCC(O)c1cc(O)cc(O)c1` (stereo unspecified) [Terbutaline hemisulfate], for which the “HMGB1-induced TNF-alpha production” value (compound concentration: 3 uM) is 50.4 ± 12%.

As to `CC(C)(C)NCC(O)c1cc(O)cc(O)c1` (stereo unspecified), for the setting “compound concentration: 3 uM”, the “HMGB1-induced TNF-alpha production” value stood at 46.9%.

In the case of `NS(=O)(=O)c1cc2c(cc1Cl)NC(CC1CCCC1)NS2(=O)=O` (stereo unspecified) [Cyclopenthiazide], the “HMGB1-induced TNF-alpha production” value (compound concentration: 3 uM) is 81.5%.

Turning to `O=C(O)CCCCC1CCSS1` (racemic) [(±)-alpha-Lipoic Acid], where the note is “compound concentration: 3 uM”, the “HMGB1-induced TNF-alpha production” value worked out at 101%.

Consider `O=C(O)CCCCC1CCSS1` (racemic) [DL-Thioctic acid], for which, under setting [1], the “HMGB1-induced TNF-alpha production” value came out at 86.7%.

Consider `CCOC(=O)[N-]c1c[n+](N2CCOCC2)no1` [Molsidomine], for which, where the note is “compound concentration: 3 uM”, the “HMGB1-induced TNF-alpha production” value worked out at 91 ± 22%.

For `CCOC(=O)[N-]c1c[n+](N2CCOCC2)no1`, the “HMGB1-induced TNF-alpha production” value (compound concentration: 3 uM) was 88.2%.

As to `CC[N+](CC)(CC)CCOc1cccc(OCC[N+](CC)(CC)CC)c1OCC[N+](CC)(CC)CC` [Gallamine triethiodide], under “compound concentration: 3 uM”, the “HMGB1-induced TNF-alpha production” value was 82.3 ± 4.2%.

In the case of `CC[N+](CC)(CC)CCOc1cccc(OCC[N+](CC)(CC)CC)c1OCC[N+](CC)(CC)CC`, for the setting “compound concentration: 3 uM”, the “HMGB1-induced TNF-alpha production” value was determined as 71.5%.

`CO[C@H]1[C@H](O)[C@@H](O)[C@@H](O)[C@H](O)[C@@H]1O` [D-Pinitol ;  3-O-Methyl-D-chiro-inositol]: the “HMGB1-induced TNF-alpha production” value under setting [1] came to 66.1%.

`CN[C@@H]1[C@H](O[C@H]2[C@H](O[C@H]3[C@H](O)[C@@H](O)[C@H](NC(=N)N)[C@@H](O)[C@@H]3NC(=N)N)O[C@@H](C)[C@]2(O)CO)O[C@@H](CO)[C@H](O)[C@H]1O`: the “HMGB1-induced TNF-alpha production” value (compound concentration: 3 uM) amounted to 81%.

For the compound `CN[C@@H]1[C@H](O[C@H]2[C@H](O[C@H]3[C@H](O)[C@@H](O)[C@H](NC(=N)N)[C@@H](O)[C@@H]3NC(=N)N)O[C@@H](C)[C@]2(O)CO)O[C@@H](CO)[C@H](O)[C@H]1O` [Dihydrostreptomycin sulfate], the “HMGB1-induced TNF-alpha production” value (compound concentration: 3 uM) came out at 93.8%.

For `NCc1ccc(S(N)(=O)=O)cc1` [Mafenide hydrochloride], the “HMGB1-induced TNF-alpha production” value (compound concentration: 3 uM) was 106%.

Turning to `NCc1ccc(S(N)(=O)=O)cc1`, the “HMGB1-induced TNF-alpha production” value (compound concentration: 3 uM) was 96.1%.

Turning to `CCc1oc2ccccc2c1C(=O)c1cc(Br)c(O)c(Br)c1` [Benzbromarone], the “HMGB1-induced TNF-alpha production” value (compound concentration: 3 uM) came out at 48.6%.
